Experimental data reported in US20240408081A1, “NOVEL SYNERGISTIC COMBINATIONS AND METHODS OF USE THEREOF FOR TREATING CANCERS” (UNIVERSITE DE BORDEAUX, priority 2021, published 2024).

Test system: SU-DIPG-IVi-Luc cells implanted in the brainstem
Assay: Orthotopic SU-DIPG-IVi-Luc brainstem glioma model in NSG mice
Assay type: in vivo, NOD/LtSz-scid IL2R gamma (NSG) mice
Conditions: GSK-126 6 mg/kg, Atorvastatin 10 mg/kg; after four treatments
Experimental: For the mouse model, the immortalized SU-DIPG-IV line was used. SU-DIPG-IVi was transduced by a luciferase vector (Luc) with a MOI of 10. Two days after birth, 10^5 SU-DIPG-IVi-Luc cells in 2 μl were injected directly into the brainstem through the neck to a depth of 3 mm using a 2 μl NeuroSyringe (Hamilton Neuros, Dutscher, Bruxelles, Belgium) under anesthesia with 2% isoflurane and 50% oxygen enrichment. […] Tumor growth was evaluated non-invasively with anesthetized mice on a Biospace imager (Biospace Lab, Nesles la Vallée, France) 1-2 days after each treatment.
Prior to treatments, mice were micro-tattooed (Aramis kit, BiosebLab, France). Animals were weighed and then receive an i.p. injection in the lower right quadrant following IACUC recommendations. A 1 ml tuberculin syringe and a 26-gauge needle were used with an injection volume of 200 μl for a 30 g mouse (3 mg/ml), adjusted to actual weight each week. Treatment was done 3 times a week, starting at day 8. Tumor growth was evaluated non-invasively on a Biospace imager (Biospace Lab, Nesles la Vallée, France). The entire procedure was carried out on a heating mat at 37° C. The animals were shaved and anesthetized in sterile condition (under PSM-2) in boxes dedicated to imaging. […]

Q: With `CC(C)c1c(C(=O)Nc2ccccc2)c(-c2ccccc2)c(-c2ccc(F)cc2)n1CC[C@@H](O)C[C@@H](O)CC(=O)O` [Atorvastatin] as the compound, how does the “tumor growth (bioluminescence)” value read?
A: No significant differences
